Test results reported in publication PMC6917733 (Scientific Reports, 2019).
Results are given in words; binding and its absence hold for the method and conditions named. In cells and extracts the contact can be indirect. Some results given as binding are weak or reduced against the parent protein; the word gives no strength.

Chains of the proteins cited; added tags and fusions are not shown.
UniProt P37288: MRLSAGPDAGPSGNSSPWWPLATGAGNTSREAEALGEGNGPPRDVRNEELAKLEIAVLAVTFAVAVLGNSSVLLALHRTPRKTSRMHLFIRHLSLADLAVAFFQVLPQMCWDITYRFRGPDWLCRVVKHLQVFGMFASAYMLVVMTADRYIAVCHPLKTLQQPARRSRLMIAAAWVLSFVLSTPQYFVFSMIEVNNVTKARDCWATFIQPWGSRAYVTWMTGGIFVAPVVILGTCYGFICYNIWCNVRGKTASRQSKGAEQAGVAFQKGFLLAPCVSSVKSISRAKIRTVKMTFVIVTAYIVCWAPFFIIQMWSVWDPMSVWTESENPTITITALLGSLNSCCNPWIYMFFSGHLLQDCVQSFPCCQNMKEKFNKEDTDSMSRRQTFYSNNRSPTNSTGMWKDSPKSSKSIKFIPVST
UniProt P30559: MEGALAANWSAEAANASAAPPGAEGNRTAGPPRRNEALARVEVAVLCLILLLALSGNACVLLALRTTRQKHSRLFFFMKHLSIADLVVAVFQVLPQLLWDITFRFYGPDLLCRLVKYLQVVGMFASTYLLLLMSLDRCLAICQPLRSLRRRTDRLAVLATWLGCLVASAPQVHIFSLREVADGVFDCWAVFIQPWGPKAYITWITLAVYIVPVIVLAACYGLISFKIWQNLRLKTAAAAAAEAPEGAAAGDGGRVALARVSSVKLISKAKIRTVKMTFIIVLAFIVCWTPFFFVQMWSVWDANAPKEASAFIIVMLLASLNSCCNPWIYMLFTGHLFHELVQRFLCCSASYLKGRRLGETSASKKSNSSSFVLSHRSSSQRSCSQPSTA
UniProt P32121: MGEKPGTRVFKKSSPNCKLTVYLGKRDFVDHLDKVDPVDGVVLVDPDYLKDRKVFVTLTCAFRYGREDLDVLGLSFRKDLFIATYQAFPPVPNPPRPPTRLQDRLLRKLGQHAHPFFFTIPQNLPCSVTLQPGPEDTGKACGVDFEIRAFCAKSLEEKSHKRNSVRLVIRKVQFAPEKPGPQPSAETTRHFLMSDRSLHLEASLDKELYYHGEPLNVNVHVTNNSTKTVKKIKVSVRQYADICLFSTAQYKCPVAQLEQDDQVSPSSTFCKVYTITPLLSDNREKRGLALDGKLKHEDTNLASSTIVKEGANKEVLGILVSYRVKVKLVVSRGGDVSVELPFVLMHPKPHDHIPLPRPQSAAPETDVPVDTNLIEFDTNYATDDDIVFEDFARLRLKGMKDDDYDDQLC

Tests used:
[1] = biological target: EGFP-tagged human vasopressin V1a receptor (human) (UniProt P37288); assay: FRET or BRET; living HEK293 cells co-transfected with β-arrestin-1/2-Nluc and EGFP-tagged receptor plasmids (ratio 1:10), furimazine; stimulated with the endogenous ligand (OT at OTR; VP at V1aR, V1bR, V2R): 10 µM time course and concentration-response read 5 min after addition; ligand-induced BRET over HBSS
[2] = biological target: EGFP-tagged human oxytocin receptor (human) (UniProt P30559); assay: as above
[3] = biological target: EGFP-tagged human vasopressin V1a receptor (human) (UniProt P37288); assay: condition: only cells stimulated with I8-arachnotocin (up to 100 µM) instead of VP; FRET or BRET; living HEK293 cells co-transfected with β-arrestin-1/2-Nluc and EGFP-tagged receptor plasmids (ratio 1:10), furimazine; stimulated with I8-arachnotocin: 10 µM time course and concentration-response (up to 100 µM) read 5 min after addition; ligand-induced BRET over HBSS, normalized to recruitment by OT/VP

With “β-arrestin-2-Nluc (from UniProt P32121 1-409)” the binding [1] was “binds”, the binding [2] was “binds” and the binding [3] was “no binding”.
